Values quoted from earlier work in patent publication US20230354803A1, “A STABLE HERBICIDAL COMPOSITION” (UPL Corporation Limited, priority 2020, published 2023).
For at least one compound, name, drawing or mass did not settle the structure.

Settings: aqueous solution, 20 hours storage

SMILES: CCSC(C)CC1CC(=O)C(/C(CC)=N/OC/C=C/Cl)=C(O)C1 (centres unmarked) [clethodim]
- Decrease of herbicide recovery on storage at pH 5 (pH 5): 37%
- Decrease of herbicide recovery on storage at pH 6 (pH 6): 8%
